# Measurements published in the supplement of paper PMC8728848.
# The list shows a part of the results.
# B1: AFL6 (Aspergillus fumigatus), Q4WKJ1 (protein)
# chain: MSFHLTAEDIRIEDGHRLVARLRNADGDLQDASIDLNTCLGNDNGHFQWDGVDFSHSAQDVHFAIEGGGQVPVLRAQLANQDGEFQDADVNLSERIENINGEFVFH
# Experiments:
# Assay in all cases: glycan array binding signal (z-score within array); higher = stronger binding
# Settings in all cases: glycan notation: IUPAC condensed, linker removed
# [1] = molecular target: Neu5Ac(a2-6)Gal(b1-4)GlcNAc(b1-2)Man(a1-3)[GlcNAc(b1-4)][Neu5Ac(a2-6)Gal(b1-4)GlcNAc(b1-2)Man(a1-6)]Man(b1-4)GlcNAc(b1-4)GlcNAc
# How it was run: (§1)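 The binding signal is a Z-score computed within each array. Data were drawn from 3228 arrays in the Consortium for Functional Glycomics database, restricted to those with a known protein sequence. Scores were averaged over arrays of the same protein sequence at different concentrations or buffers, and over linkers, and negative values can be taken as non-binding.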
# [2] = molecular target: Neu5Ac(a2-6)Gal(b1-4)GlcNAc(b1-2)Man(a1-3)[Man(a1-6)]Man(b1-4)GlcNAc(b1-4)GlcNAc
# How it was run: as §1
# [3] = molecular target: Neu5Ac(a2-6)Gal(b1-4)GlcNAc(b1-2)Man(a1-3)[Neu5Ac(a2-3)Gal(b1-4)GlcNAc(b1-2)Man(a1-6)]Man(b1-4)GlcNAc(b1-4)GlcNAc
# How it was run: as §1
# [4] = molecular target: Neu5Ac(a2-6)Gal(b1-4)GlcNAc(b1-2)Man(a1-3)[Neu5Ac(a2-6)Gal(b1-4)GlcNAc(b1-2)Man(a1-6)]Man(b1-4)GlcNAc(b1-4)GlcNAc
# How it was run: as §1
# [5] = molecular target: Neu5Ac(a2-6)Gal(b1-4)GlcNAc(b1-2)Man(a1-3)[Neu5Ac(a2-6)Gal(b1-4)GlcNAc(b1-2)Man(a1-6)]Man(b1-4)GlcNAc(b1-4)[Fuc(a1-6)]GlcNAc
# How it was run: as §1
# [6] = molecular target: Neu5Ac(a2-6)Gal(b1-4)GlcNAc(b1-2)Man(a1-6)Man(b1-4)GlcNAc(b1-4)GlcNAc
# How it was run: as §1
# [7] = molecular target: Neu5Ac(a2-6)Gal(b1-4)GlcNAc(b1-2)Man(a1-6)[Gal(b1-4)GlcNAc(b1-2)Man(a1-3)]Man(b1-4)GlcNAc(b1-4)GlcNAc
# How it was run: as §1
# [8] = molecular target: Neu5Ac(a2-6)Gal(b1-4)GlcNAc(b1-2)Man(a1-6)[GlcNAc(b1-2)Man(a1-3)]Man(b1-4)GlcNAc(b1-4)GlcNAc
# How it was run: as §1
# [9] = molecular target: Neu5Ac(a2-6)Gal(b1-4)GlcNAc(b1-2)Man(a1-6)[Man(a1-3)]Man(b1-4)GlcNAc(b1-4)GlcNAc
# How it was run: as §1
# [10] = molecular target: Neu5Ac(a2-6)Gal(b1-4)GlcNAc(b1-2)[Neu5Ac(a2-6)Gal(b1-4)GlcNAc(b1-4)]Man(a1-3)[GlcNAc(b1-4)][Neu5Ac(a2-6)Gal(b1-4)GlcNAc(b1-2)[Neu5Ac(a2-6)Gal(b1-4)GlcNAc(b1-6)]Man(a1-6)]Man(b1-4)GlcNAc(b1-4)GlcNAc
# How it was run: as §1
# [11] = molecular target: Neu5Ac(a2-6)Gal(b1-4)GlcNAc(b1-2)[Neu5Ac(a2-6)Gal(b1-4)GlcNAc(b1-4)]Man(a1-3)[GlcNAc(b1-4)][Neu5Ac(a2-6)Gal(b1-4)GlcNAc(b1-4)Man(a1-6)]Man(b1-4)GlcNAc(b1-4)GlcNAc
# How it was run: as §1
# [12] = molecular target: Neu5Ac(a2-6)Gal(b1-4)GlcNAc(b1-2)[Neu5Ac(a2-6)Gal(b1-4)GlcNAc(b1-6)]Man(a1-6)[Neu5Ac(a2-6)Gal(b1-4)GlcNAc(b1-2)Man(a1-3)][GlcNAc(b1-4)]Man(b1-4)GlcNAc(b1-4)GlcNAc
# How it was run: as §1
# [13] = molecular target: Neu5Ac(a2-6)Gal(b1-4)GlcNAc(b1-3)Gal(b1-3)GlcNAc
# How it was run: as §1
# [14] = molecular target: Neu5Ac(a2-6)Gal(b1-4)GlcNAc(b1-3)Gal(b1-4)GlcNAc
# How it was run: as §1
# [15] = molecular target: Neu5Ac(a2-6)Gal(b1-4)GlcNAc(b1-3)Gal(b1-4)GlcNAc(b1-2)Man(a1-3)[Neu5Ac(a2-6)Gal(b1-4)GlcNAc(b1-3)Gal(b1-4)GlcNAc(b1-2)Man(a1-6)]GalNAc
# How it was run: as §1
# [16] = molecular target: Neu5Ac(a2-6)Gal(b1-4)GlcNAc(b1-3)Gal(b1-4)GlcNAc(b1-3)Gal(b1-4)GlcNAc
# How it was run: as §1
# [17] = molecular target: Neu5Ac(a2-6)Gal(b1-4)GlcNAc(b1-3)Gal(b1-4)GlcNAc(b1-3)Gal(b1-4)GlcNAc(b1-2)Man(a1-3)[Neu5Ac(a2-6)Gal(b1-4)GlcNAc(b1-3)Gal(b1-4)GlcNAc(b1-3)Gal(b1-4)GlcNAc(b1-2)Man(a1-6)]GalNAc
# How it was run: as §1
# [18] = molecular target: Neu5Ac(a2-6)Gal(b1-4)GlcNAc(b1-3)Gal(b1-4)GlcNAc(b1-3)GalNAc
# How it was run: as §1
# [19] = molecular target: Neu5Ac(a2-6)Gal(b1-4)GlcNAc(b1-3)Gal(b1-4)GlcNAc(b1-3)[Neu5Ac(a2-6)Gal(b1-4)GlcNAc(b1-3)Gal(b1-4)GlcNAc(b1-6)]GalNAc
# How it was run: as §1
# [20] = molecular target: Neu5Ac(a2-6)Gal(b1-4)GlcNAc(b1-3)Gal(b1-4)GlcNAc(b1-6)[Gal(b1-3)]GalNAc
# How it was run: as §1
# [21] = molecular target: Neu5Ac(a2-6)Gal(b1-4)GlcNAc(b1-3)Gal(b1-4)[Fuc(a1-3)]GlcNAc(b1-3)Gal(b1-4)[Fuc(a1-3)]GlcNAc
# How it was run: as §1
# [22] = molecular target: Neu5Ac(a2-6)Gal(b1-4)GlcNAc(b1-3)GalNAc
# How it was run: as §1
# [23] = molecular target: Neu5Ac(a2-6)Gal(b1-4)GlcNAc(b1-3)[Neu5Ac(a2-6)Gal(b1-4)GlcNAc(b1-6)]GalNAc
# How it was run: as §1
# [24] = molecular target: Neu5Ac(a2-6)Gal(b1-4)GlcNAc(b1-6)GalNAc
# How it was run: as §1
# [25] = molecular target: Neu5Ac(a2-6)Gal(b1-4)GlcNAc(b1-6)[Gal(b1-3)GlcNAc(b1-3)]Gal(b1-4)Glc
# How it was run: as §1
# [26] = molecular target: Neu5Ac(a2-6)Gal(b1-4)GlcNAc(b1-6)[Gal(b1-3)]GalNAc
# How it was run: as §1
# [27] = molecular target: Neu5Ac(a2-6)Gal(b1-4)GlcNAc6S
# How it was run: as §1
# [28] = molecular target: Neu5Ac(a2-6)GalNAc
# How it was run: as §1
# [29] = molecular target: Neu5Ac(a2-6)GalNAc(b1-4)GlcNAc
# How it was run: as §1
# [30] = molecular target: Neu5Ac(a2-6)GalNAc(b1-4)GlcNAc6S
# How it was run: as §1
# [31] = molecular target: Neu5Ac(a2-6)GlcNAc(b1-4)GlcNAc
# How it was run: as §1
binder,measurement,setting,value
B1,glycan array binding signal (z-score),[1],-0.394
same,glycan array binding signal (z-score),[2],-0.362
same,glycan array binding signal (z-score),[3],-0.35
same,glycan array binding signal (z-score),[4],0.163
same,glycan array binding signal (z-score),[5],0.747
same,glycan array binding signal (z-score),[6],0.117
same,glycan array binding signal (z-score),[7],-0.991
same,glycan array binding signal (z-score),[8],-0.483
same,glycan array binding signal (z-score),[9],0.16
same,glycan array binding signal (z-score),[10],-0.213
same,glycan array binding signal (z-score),[11],-0.275
same,glycan array binding signal (z-score),[12],-0.213
same,glycan array binding signal (z-score),[13],1.09
same,glycan array binding signal (z-score),[14],-0.666
same,glycan array binding signal (z-score),[15],0.521
same,glycan array binding signal (z-score),[16],0.271
same,glycan array binding signal (z-score),[17],3.09
same,glycan array binding signal (z-score),[18],-0.001
same,glycan array binding signal (z-score),[19],1.6
same,glycan array binding signal (z-score),[20],-0.31
same,glycan array binding signal (z-score),[21],0.009
same,glycan array binding signal (z-score),[22],0.093
same,glycan array binding signal (z-score),[23],0.105
same,glycan array binding signal (z-score),[24],0.248
same,glycan array binding signal (z-score),[25],0.854
same,glycan array binding signal (z-score),[26],-0.544
same,glycan array binding signal (z-score),[27],-0.811
same,glycan array binding signal (z-score),[28],-0.394
same,glycan array binding signal (z-score),[29],-0.522
same,glycan array binding signal (z-score),[30],-0.406
same,glycan array binding signal (z-score),[31],-0.135

# Two entries from above in a different format.
binder | measurement | setting | value
B1 | glycan array binding signal (z-score) | [17] | 3.09
same | glycan array binding signal (z-score) | [18] | -0.001
